Results deposited as PubChem BioAssay AID1159578 (Peter MacCallum Cancer Centre, 2015).

Aim: 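siRNA pools altering how lymphatic endothelial cells close a scratch wound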 (primary screen)
Cell system: human lymphatic endothelial cells
Knock-down reagent: siRNA pool against human genes, 40 nM
Timing: 48 h after transfection
Measurement: 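Cells stained with dye and imaged after a scratch; covered wound area and nuclei counted, duplicates averaged, migration set against mock wells and turned into a robust z-score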
Scale: migration robust z-score: higher = faster migration into the scratch; nuclei per well: higher = more cells in the well
Active means: 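Migration changed when robust z exceeds 2 or falls below -2 and mean nuclei number is at least 3300; otherwise not called changed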
Meaning of the calls: active = migration changed; inactive = no migration change, or too few cells
Here is a random part of about 18,000 reagents tested. Of all reagents, about 1,030 (5.7%) got an active call. 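Inactive calls also include pools with fewer than 3300 nuclei, whose migration was not assessed.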 The raw values are shown without normalisation. Further read-outs or replicates are left out here.

TCEAL2 (transcription elongation factor A like 2): migration robust z-score = -0.41; nuclei per well, duplicate mean = 5680; call = inactive
VWF (von Willebrand factor): migration robust z-score = -0.08; nuclei per well, duplicate mean = 5542; call = inactive
LYSMD4 (LysM domain containing 4): migration robust z-score = -0.95; nuclei per well, duplicate mean = 5846; call = inactive
CYP2A7 (cytochrome P450 family 2 subfamily A member 7): migration robust z-score = -0.57; nuclei per well, duplicate mean = 6096; call = inactive
GOLGA2 (golgin A2): migration robust z-score = 1.73; nuclei per well, duplicate mean = 5563; call = inactive
KEL (Kell metallo-endopeptidase (Kell blood group)): migration robust z-score = 1.06; nuclei per well, duplicate mean = 6022; call = inactive
BCLAF3 (BCLAF1 and THRAP3 family member 3): migration robust z-score = -1.03; nuclei per well, duplicate mean = 5583; call = inactive
MARCHF1 (membrane associated ring-CH-type finger 1): migration robust z-score = 1.02; nuclei per well, duplicate mean = 6334; call = inactive
STOX2 (storkhead box 2): migration robust z-score = 2.96; nuclei per well, duplicate mean = 5752; call = active
DLL3 (delta like canonical Notch ligand 3): migration robust z-score = -0.7; nuclei per well, duplicate mean = 4635; call = inactive
ACADVL (acyl-CoA dehydrogenase very long chain): migration robust z-score = 0.42; nuclei per well, duplicate mean = 4949; call = inactive
GNG13 (G protein subunit gamma 13): migration robust z-score = -1.29; nuclei per well, duplicate mean = 4871; call = inactive
GZMK (granzyme K): migration robust z-score = 0.76; nuclei per well, duplicate mean = 5400; call = inactive
MYOF (myoferlin): migration robust z-score = -1.88; nuclei per well, duplicate mean = 4181; call = inactive
BGLAP (bone gamma-carboxyglutamate protein): migration robust z-score = -1.8; nuclei per well, duplicate mean = 2954; call = inactive
ATP9A (ATPase phospholipid transporting 9A): migration robust z-score = 0.48; nuclei per well, duplicate mean = 5873; call = inactive
TNFRSF6B (TNF receptor superfamily member 6b): migration robust z-score = 1.01; nuclei per well, duplicate mean = 5594; call = inactive

Reagents listed above with an active call:
STOX2 (storkhead box 2): migration robust z-score = 2.96; nuclei per well, duplicate mean = 5752; call = active

More records follow.
KCNJ5-AS1 (KCNJ5 antisense RNA 1): migration robust z-score = -0.76; nuclei per well, duplicate mean = 5653; call = inactive
DENND5B (DENN domain containing 5B): migration robust z-score = 0.31; nuclei per well, duplicate mean = 6806; call = inactive
ABCF1 (ATP binding cassette subfamily F member 1): migration robust z-score = -0.36; nuclei per well, duplicate mean = 6632; call = inactive
MRPL24 (mitochondrial ribosomal protein L24): migration robust z-score = -0.18; nuclei per well, duplicate mean = 6626; call = inactive
ZNF692 (zinc finger protein 692): migration robust z-score = 0.64; nuclei per well, duplicate mean = 6649; call = inactive
NLRC4 (NLR family CARD domain containing 4): migration robust z-score = -0.21; nuclei per well, duplicate mean = 4686; call = inactive
TJP3 (tight junction protein 3): migration robust z-score = 0.13; nuclei per well, duplicate mean = 6798; call = inactive
HOXA5 (homeobox A5): migration robust z-score = -0.21; nuclei per well, duplicate mean = 4460; call = inactive
TAP1 (transporter 1, ATP binding cassette subfamily B member): migration robust z-score = 0.08; nuclei per well, duplicate mean = 6082; call = inactive
RERGL (RERG like): migration robust z-score = 1.02; nuclei per well, duplicate mean = 5158; call = inactive
